Data taken from paper PMC5939225.
Results are given in words; binding and its absence hold for the method and conditions named. Binding seen in cells or lysates may run through a third protein. Binding can be weak; no strength is given.

By UniProt entry, the sequences of proteins in these tests, tags left out. Where a name states a change or a piece, a line headed by the entry shows the natural chain unless it says otherwise.
UniProt P46414: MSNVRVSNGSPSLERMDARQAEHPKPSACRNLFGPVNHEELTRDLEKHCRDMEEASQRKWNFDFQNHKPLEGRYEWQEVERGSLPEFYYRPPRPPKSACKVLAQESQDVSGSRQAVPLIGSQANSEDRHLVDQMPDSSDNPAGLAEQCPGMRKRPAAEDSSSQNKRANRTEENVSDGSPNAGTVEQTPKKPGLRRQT
UniProt Q9QUI0: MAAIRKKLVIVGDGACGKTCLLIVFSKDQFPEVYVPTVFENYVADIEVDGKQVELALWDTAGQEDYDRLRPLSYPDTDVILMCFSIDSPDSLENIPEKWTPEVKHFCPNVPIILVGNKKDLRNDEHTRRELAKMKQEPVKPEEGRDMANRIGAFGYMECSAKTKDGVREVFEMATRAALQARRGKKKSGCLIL

Biological target: p27 (mouse (endogenous in primary hippocampal neurons)) (UniProt P46414)
Assay: co-IP; anti-p27 antibody cross-linked to Protein A/G agarose beads, incubated with extracts of primary hippocampal neurons at 4 °C overnight; blot with anti-RhoA; neurons WT or Cks1-/-, siCtrl or siCks1, with or without PiB or PINTIDE

## RhoA (from UniProt Q9QUI0)
  binding: binds
